Results taken from patent EP0402313 (dated 1990).
Strings that start with PEPTIDE1 are HELM notation: dots part the residues, brackets hold end groups and non-standard residues.

Test: Boc solid-phase peptide synthesis; Boc-Trp(CHO)-OCH2-Pam resin; DCCD/HOBt
Conditions: whole synthesis, scale 0.5 mmol

With “PEPTIDE1{C.S.C.S.S.L.[Nle].D.K.E.C.V.Y.F.C.H.L.D.I.I.W}$PEPTIDE1,PEPTIDE1,1:R3-15:R3|PEPTIDE1,PEPTIDE1,3:R3-11:R3$$$V2.0” as the substance, how does the isolated mass read?
The isolated mass was 33 mg.
